According to PMC11270583:
Where a chain is given by its changes, count along the chain named. No constants are given. Whether binding was seen depends on the method and setting. Binding seen in cells or lysates may run through a third protein. Some results given as binding are weak or reduced against the parent protein; the word gives no strength. For some assays here: Sequences can lack the tags named with a protein.

Legend:
[1] = molecular target: T1, Flag-tagged FLOT2^L104A mutant (UniProt Q60634); assay: co-IP; Flag-tagged FLOT2 L104A in transfected 4T1 cells with RAB31 (Figure S9, not shown; the sentence does not name the method, co-IP is the paper's only method with a RAB31 antibody)
T1 sequence: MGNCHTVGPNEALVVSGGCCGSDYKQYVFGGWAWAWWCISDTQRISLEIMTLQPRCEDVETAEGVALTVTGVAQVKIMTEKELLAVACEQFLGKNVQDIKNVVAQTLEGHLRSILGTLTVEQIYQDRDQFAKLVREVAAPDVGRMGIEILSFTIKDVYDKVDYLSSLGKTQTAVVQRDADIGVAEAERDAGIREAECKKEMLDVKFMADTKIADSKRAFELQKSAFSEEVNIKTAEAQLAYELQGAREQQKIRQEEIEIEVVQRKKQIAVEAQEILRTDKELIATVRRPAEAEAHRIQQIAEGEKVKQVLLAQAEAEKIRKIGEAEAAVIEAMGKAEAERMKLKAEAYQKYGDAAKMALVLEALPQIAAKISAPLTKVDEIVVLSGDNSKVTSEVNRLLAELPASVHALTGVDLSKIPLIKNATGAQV

[2] = molecular target: T2, flotillin 2 (FLOT2) (mouse (endogenous in 4T1)) (UniProt Q60634); assay: co-IP; endogenous RAB31 and FLOT2 in 4T1 cells, Pierce Co-Immunoprecipitation Kit; cells untreated or treated with 1.25-5 uM baohuoside I (BHS) for 48 h; which protein was precipitated is not told
T2 sequence: T1 sequence with A104L

binding [1]: binds
binding [2]: binds
B1: RAS oncogene family member 31 (RAB31) (protein, UniProt Q921E2 1-195)
chain: MMAIRELKVCLLGDTGVGKSSIVCRFVQDHFDHNISPTIGASFMTKTVPCGNELHKFLIWDTAGQERFHSLAPMYYRGSAAAVIVYDITKQDSFHTLKKWVKELKEHGPENIVMAIAGNKCDLSDIREVPLKDAKEYAESIGAIVVETSAKNAINIEELFQGISRQIPPLGPQENGNSGGIKLGNQSLQASRRCC
